Experimental data published in US20050054008A1.
No constants are given. Whether binding was seen depends on the method and setting. Binding seen in cells or lysates may run through a third protein. Some entries that bind do so weakly or less than the wild type. For some assays here: Tags and fused reporters may be left off the sequences shown. Values belong to the substance of their own block, whether it stands above or below them.

Chains of the proteins cited; added tags and fusions are not shown. Lines headed by an entry give the natural chain unless they say otherwise; changes in a name come on top.
UniProt Q9Y6K9: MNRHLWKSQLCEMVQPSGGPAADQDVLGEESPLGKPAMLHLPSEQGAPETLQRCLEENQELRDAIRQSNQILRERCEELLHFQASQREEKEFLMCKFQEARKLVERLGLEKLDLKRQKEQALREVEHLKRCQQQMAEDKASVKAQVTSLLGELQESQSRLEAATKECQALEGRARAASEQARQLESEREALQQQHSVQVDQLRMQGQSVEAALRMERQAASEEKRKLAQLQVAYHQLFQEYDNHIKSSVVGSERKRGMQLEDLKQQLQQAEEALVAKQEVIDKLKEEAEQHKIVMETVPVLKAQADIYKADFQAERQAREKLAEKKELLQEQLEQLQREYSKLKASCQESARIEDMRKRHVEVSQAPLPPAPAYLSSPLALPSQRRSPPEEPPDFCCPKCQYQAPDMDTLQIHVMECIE
UniProt P22736: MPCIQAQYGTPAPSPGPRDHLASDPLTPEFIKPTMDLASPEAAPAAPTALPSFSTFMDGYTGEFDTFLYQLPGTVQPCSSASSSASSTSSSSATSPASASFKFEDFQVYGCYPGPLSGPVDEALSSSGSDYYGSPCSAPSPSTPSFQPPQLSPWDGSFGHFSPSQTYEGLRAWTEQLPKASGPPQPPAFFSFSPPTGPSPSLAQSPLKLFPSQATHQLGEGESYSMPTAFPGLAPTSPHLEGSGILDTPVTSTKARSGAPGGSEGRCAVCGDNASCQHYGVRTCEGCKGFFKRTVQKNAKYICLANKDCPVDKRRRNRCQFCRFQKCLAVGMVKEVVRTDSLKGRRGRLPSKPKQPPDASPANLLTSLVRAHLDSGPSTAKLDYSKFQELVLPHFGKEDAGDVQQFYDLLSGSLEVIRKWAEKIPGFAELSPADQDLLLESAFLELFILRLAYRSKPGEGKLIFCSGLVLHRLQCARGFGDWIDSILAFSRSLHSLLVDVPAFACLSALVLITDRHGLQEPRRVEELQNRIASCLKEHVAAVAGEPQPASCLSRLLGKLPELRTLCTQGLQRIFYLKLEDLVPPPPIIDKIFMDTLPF
UniProt P19793: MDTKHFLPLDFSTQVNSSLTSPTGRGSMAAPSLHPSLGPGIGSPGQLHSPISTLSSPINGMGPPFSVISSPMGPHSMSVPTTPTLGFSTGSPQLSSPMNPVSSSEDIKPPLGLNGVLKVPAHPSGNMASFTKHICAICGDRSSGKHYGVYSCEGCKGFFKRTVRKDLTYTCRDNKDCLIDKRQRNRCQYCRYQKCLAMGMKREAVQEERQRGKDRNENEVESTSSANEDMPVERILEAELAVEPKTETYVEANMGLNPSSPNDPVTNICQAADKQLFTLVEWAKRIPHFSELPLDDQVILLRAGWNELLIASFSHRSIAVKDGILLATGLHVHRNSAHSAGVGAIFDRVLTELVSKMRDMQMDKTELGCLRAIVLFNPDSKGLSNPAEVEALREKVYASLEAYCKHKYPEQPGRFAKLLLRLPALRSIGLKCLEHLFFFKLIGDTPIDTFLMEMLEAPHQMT

Legend:
HA-IKKγ [1] = molecular target: HA-IKKγ (UniProt Q9Y6K9); assay: co-immunoprecipitation of tagged proteins (figure legend)
HA-IKKγ [2] = molecular target: HA-IKKγ (UniProt Q9Y6K9); assay: co-immunoprecipitation from HEK293T cells transfected with HA-IKKγ and Flag-RXRα
[3] = molecular target: TR3/467 (TR3 mutant comprising a truncated C-terminus) (Homo sapiens (Human)) (UniProt P22736); assay: GST pull-down, immunoblot
[4] = molecular target: T1, IKKβ (IkB kinase beta subunit), tagged, expressed from pcDNA3 in HEK293T cells (UniProt O14920); assay: co-immunoprecipitation of tagged proteins (figure legend)
T1 sequence (looked up): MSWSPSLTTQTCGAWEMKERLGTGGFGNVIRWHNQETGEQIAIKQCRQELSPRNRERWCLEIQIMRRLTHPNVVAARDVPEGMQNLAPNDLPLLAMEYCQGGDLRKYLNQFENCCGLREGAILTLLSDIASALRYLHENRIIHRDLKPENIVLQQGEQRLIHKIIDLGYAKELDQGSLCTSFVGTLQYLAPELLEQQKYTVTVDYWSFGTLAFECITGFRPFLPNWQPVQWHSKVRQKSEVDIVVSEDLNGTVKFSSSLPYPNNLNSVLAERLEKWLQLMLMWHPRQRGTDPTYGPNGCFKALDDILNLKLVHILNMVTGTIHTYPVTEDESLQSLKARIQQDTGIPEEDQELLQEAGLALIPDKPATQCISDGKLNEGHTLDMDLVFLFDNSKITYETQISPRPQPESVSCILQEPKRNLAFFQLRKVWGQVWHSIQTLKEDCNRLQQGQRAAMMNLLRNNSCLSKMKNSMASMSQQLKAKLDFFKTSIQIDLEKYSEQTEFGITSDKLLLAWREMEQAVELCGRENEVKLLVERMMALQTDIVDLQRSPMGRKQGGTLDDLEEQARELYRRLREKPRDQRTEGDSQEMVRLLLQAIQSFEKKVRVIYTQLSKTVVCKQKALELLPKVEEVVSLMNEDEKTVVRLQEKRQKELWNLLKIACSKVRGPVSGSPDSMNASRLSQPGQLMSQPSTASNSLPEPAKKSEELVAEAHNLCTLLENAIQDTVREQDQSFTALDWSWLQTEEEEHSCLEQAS

[5] = molecular target: T1, IKKβ (IkB kinase beta subunit), tagged, expressed from pcDNA3 in HEK293T cells; assay: co-immunoprecipitation from transfected HEK293T cells treated with sulindac sulfide (75 uM, 6 hr)

binding (HA-IKKγ [1]): binds | binding (HA-IKKγ [2]): binds
Substance: Flag-RXR.alpha. (from UniProt P19793 1-462) (receptor)

binding [3]: binds
Substance: GST-RXR.alpha. (from UniProt P19793 1-462)

binding [4]: binds | binding [5]: binds
Substance: RXR.alpha., tagged, expressed from pcDNA3 in HEK293T cells (co-immunoprecipitation with IKK.beta.) (from UniProt P19793 1-462) (receptor)
